Earlier results, collected in patent US20040235019A1, “Diagnostics and therapeutics for the gene expression signature of PPAR-gamma receptor ligand” (Agouron Pharmaceuticals, Inc., priority 2003, published 2004).
At least one compound was matched to its structure with a doubt left.

System: PGAR
Conditions: NIH3T3 cells, within 2 hours; cited from earlier work

CCc1ccc(CCOc2ccc(CC3SC(=O)NC3=O)cc2)nc1 (stereo not shown) [Pioglitazone]
PGAR expression and protein: upregulate PGAR expression and protein
